Test results published in publication PMC10081216.
No constants are given. Whether binding was seen depends on the method and setting. In cells and extracts the contact can be indirect. These calls come from enrichment with a bait or labelling near it, and not all partners need be listed.

Target: BirA*-DUX (full-length mouse DUX with BirA* fused to the N-terminus), in mESCs (mouse)
Assay: proximity labelling; BioID: BirA*-DUX (full-length) in mESCs against unfused BirA* alone in 2C-like mESCs; clonal stable lines, 12hr with 0.25 μg/mL doxycycline and 5μM biotin (methods: 0.5 μM biotin, 18 hours); streptavidin pulldown, LC MS/MS; DESeq2 and SAINTexpress

B1: ZSCAN4D, endogenous in 2C-like mESCs (protein, UniProt A7KBS4 1-506)
chain: MASQQAPAKDLQTNNLEFTPSHSSGVQWVEDISNSPSAQLNFSPSNNGCWATQELQSLWKMFNSWLQPEKQTKEQMISQLVLEQFLLIGHCKDKYALTEKWKASGSDMRRFMESLTDECLKPPVMVHVSMQGQEALFSENMPLKEVIKLLKQQQSATRPTPDNEQMPVDTTQDRLLATGQENSENECNNSCNATEANVGESCSGNEMDSLLIIQKEQYPEHEEGNVVFQFPLDARRASQGNSSHHVDFRSAPTPADVPMEEQPKDLSRENISEDKNNCYNTSRNAATQVYRSDNIPRKKTDSLSINKRIYHSEPEEGDIPYGVPQDSTRASQGTSTCLQESLGECFSEKDPRELPGLESRQEEPISDPVFLGKDHEANLPCESHQKRFRRDAKLFKCEECSRMFKHARSLSSHQRTHLNKKSELLCVTCQKMFKRVSDRRTHEIIHMPEKPFKCSTCEKSFSHKTNLKSHEMIHTGEMPYVCSLCSRRFRQSSTYHRHLRNYHRSD
**Q.** For B1, which binding is on record?
**A.** The binding was “binds”.
